According to US20170327562A1:
These are yes or no findings as the source states them, for the method shown. Some binding calls cover weakened binding; strength is not graded here.

The chains behind the UniProt entries cited, without tags or fusion partners. Where a name states a change or a piece, a line headed by the entry shows the natural chain unless it says otherwise. Residues count along the entry.
UniProt P56199, residues 167-364: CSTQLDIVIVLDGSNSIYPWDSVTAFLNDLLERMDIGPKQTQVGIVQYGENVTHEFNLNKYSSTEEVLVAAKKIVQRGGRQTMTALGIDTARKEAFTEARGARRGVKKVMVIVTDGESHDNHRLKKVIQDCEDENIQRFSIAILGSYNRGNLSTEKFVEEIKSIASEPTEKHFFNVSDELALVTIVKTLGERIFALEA
UniProt P02454: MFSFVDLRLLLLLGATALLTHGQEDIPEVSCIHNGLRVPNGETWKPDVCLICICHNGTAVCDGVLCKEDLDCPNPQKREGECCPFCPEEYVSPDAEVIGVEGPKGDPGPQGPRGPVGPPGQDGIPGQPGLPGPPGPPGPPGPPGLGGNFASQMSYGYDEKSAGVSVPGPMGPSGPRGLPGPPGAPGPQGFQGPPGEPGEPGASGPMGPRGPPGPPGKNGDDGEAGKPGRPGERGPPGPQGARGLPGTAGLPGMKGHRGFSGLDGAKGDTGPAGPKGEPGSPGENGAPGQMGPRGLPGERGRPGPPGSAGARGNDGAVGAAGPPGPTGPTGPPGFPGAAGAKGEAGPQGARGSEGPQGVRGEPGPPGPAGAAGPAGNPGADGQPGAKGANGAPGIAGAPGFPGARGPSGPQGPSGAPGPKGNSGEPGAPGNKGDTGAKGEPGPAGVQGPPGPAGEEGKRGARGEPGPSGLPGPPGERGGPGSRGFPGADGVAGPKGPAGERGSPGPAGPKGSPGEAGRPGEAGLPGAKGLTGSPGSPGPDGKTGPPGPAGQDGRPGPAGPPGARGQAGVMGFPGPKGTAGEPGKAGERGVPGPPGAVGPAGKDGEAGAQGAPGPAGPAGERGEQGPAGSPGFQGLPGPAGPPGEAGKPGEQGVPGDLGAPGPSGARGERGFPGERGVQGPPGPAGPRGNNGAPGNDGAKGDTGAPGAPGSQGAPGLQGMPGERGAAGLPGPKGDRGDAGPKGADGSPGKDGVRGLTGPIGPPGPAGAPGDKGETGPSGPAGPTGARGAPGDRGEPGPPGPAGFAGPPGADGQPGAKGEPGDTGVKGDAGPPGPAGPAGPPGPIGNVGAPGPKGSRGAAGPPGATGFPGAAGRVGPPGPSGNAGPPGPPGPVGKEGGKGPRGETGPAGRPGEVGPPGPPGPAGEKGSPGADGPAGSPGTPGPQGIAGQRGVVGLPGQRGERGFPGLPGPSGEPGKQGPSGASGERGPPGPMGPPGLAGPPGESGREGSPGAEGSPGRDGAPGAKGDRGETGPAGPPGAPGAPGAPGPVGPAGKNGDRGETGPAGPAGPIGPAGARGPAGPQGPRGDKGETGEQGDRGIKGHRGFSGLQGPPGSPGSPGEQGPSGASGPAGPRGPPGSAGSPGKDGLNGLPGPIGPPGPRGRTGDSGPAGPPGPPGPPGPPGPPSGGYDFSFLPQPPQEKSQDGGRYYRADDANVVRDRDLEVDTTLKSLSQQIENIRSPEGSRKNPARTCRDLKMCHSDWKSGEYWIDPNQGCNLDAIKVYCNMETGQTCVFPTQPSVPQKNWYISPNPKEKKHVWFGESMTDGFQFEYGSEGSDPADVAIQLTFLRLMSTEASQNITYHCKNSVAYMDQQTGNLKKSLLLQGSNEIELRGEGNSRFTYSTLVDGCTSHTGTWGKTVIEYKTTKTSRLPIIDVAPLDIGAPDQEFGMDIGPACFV

Key:
[1] = biological target: recombinant integrin α1 I domain (human) (UniProt P56199); test: ELISA based binding assay
[2] = biological target: recombinant integrin α1 I domain (human) (UniProt P56199); test: ELISA, 5 µM recombinant α1 I-domains on coated wells, anti-his-HRP detection
[3] = biological target: recombinant integrin α1 I domain (human) (UniProt P56199); test: ELISA, coated 1 µg per well, 5 µM α1 I-domains

Measured: binding

rat tail derived collagen type I (from UniProt P02454 152-1207; P02466 86-1125) (ligand)
binds: all assays above
